The experiment has as its target T1, Flag-tagged NDRG2 (N-myc downstream-regulated gene 2), transfected in 293T cells (UniProt Q9UN36).
T1 sequence: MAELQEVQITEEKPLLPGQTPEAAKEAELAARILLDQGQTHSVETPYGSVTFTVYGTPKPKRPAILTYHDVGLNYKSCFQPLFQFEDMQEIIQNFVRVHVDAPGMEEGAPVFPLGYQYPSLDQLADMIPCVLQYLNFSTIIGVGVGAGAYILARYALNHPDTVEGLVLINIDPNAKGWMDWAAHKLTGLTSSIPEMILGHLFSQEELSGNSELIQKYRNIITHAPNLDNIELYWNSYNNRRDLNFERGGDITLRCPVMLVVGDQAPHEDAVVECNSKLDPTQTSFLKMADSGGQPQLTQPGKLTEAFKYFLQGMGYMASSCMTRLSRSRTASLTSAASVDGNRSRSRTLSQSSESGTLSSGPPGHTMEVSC
Description: co-IP; lysates of 293T cells co-transfected with HA-NIK (WT or mutant) and Flag-NDRG2; immunoprecipitated with anti-Flag and with anti-HA antibodies, Western blot. For orientation: Immunoblotting shows a protein as a band on a membrane.

No constants are given. Whether binding was seen depends on the method and setting. Binding seen in cells or lysates may run through a third protein. Tags and fused reporters may be left off the sequences shown.

Here are results for two molecules from PMC4534796.

B1: HA-tagged NIK-T559A (protein, UniProt Q99558 1-947)
chain: MAVMEMACPGAPGSAVGQQKELPKAKEKTPPLGKKQSSVYKLEAVEKSPVFCGKWEILNDVITKGTAKEGSEAGPAAISIIAQAECENSQEFSPTFSERIFIAGSKQYSQSESLDQIPNNVAHATEGKMARVCWKGKRRSKARKKRKKKSSKSLAHAGVALAKPLPRTPEQESCTIPVQEDESPLGAPYVRNTPQFTKPLKEPGLGQLCFKQLGEGLRPALPRSELHKLISPLQCLNHVWKLHHPQDGGPLPLPTHPFPYSRLPHPFPFHPLQPWKPHPLESFLGKLACVDSQKPLPDPHLSKLACVDSPKPLPGPHLEPSCLSRGAHEKFSVEEYLVHALQGSVSSGQAHSLTSLAKTWAARGSRSREPSPKTEDNEGVLLTEKLKPVDYEYREEVHWATHQLRLGRGSFGEVHRMEDKQTGFQCAVKKVRLEVFRAEELMACAGLTSPRIVPLYGAVREGPWVNIFMELLEGGSLGQLVKEQGCLPEDRALYYLGQALEGLEYLHSRRILHGDVKADNVLLSSDGSHAALCDFGHAVCLQPDGLGKSLLTGDYIPGAETHMAPEVVLGRSCDAKVDVWSSCCMMLHMLNGCHPWTQFFRGPLCLKIASEPPPVREIPPSCAPLTAQAIQEGLRKEPIHRVSAAELGGKVNRALQQVGGLKSPWRGEYKEPRHPPPNQANYHQTLHAQPRELSPRAPGPRPAEETTGRAPKLQPPLPPEPPEPNKSPPLTLSKEESGMWEPLPLSSLEPAPARNPSSPERKATVPEQELQQLEIELFLNSLSQPFSLEEQEQILSCLSIDSLSLSDDSEKNPSKASQSSRDTLSSGVHSWSSQAEARSSSWNMVLARGRPTDTPSYFNGVKVQIQSLNGEHLHIREFHRVKVGDIATGISSQIPAAAFSLVTKDGQPVRYDMEVPDSGIDLQCTLAPDGSFAWSWRVKHGQLENRP
With B1, the binding result is “no binding”.

B2: HA-tagged NIK-KK429/430AA (kinase-dead NIK mutant) (protein, UniProt Q99558 1-947)
chain: MAVMEMACPGAPGSAVGQQKELPKAKEKTPPLGKKQSSVYKLEAVEKSPVFCGKWEILNDVITKGTAKEGSEAGPAAISIIAQAECENSQEFSPTFSERIFIAGSKQYSQSESLDQIPNNVAHATEGKMARVCWKGKRRSKARKKRKKKSSKSLAHAGVALAKPLPRTPEQESCTIPVQEDESPLGAPYVRNTPQFTKPLKEPGLGQLCFKQLGEGLRPALPRSELHKLISPLQCLNHVWKLHHPQDGGPLPLPTHPFPYSRLPHPFPFHPLQPWKPHPLESFLGKLACVDSQKPLPDPHLSKLACVDSPKPLPGPHLEPSCLSRGAHEKFSVEEYLVHALQGSVSSGQAHSLTSLAKTWAARGSRSREPSPKTEDNEGVLLTEKLKPVDYEYREEVHWATHQLRLGRGSFGEVHRMEDKQTGFQCAVAAVRLEVFRAEELMACAGLTSPRIVPLYGAVREGPWVNIFMELLEGGSLGQLVKEQGCLPEDRALYYLGQALEGLEYLHSRRILHGDVKADNVLLSSDGSHAALCDFGHAVCLQPDGLGKSLLTGDYIPGTETHMAPEVVLGRSCDAKVDVWSSCCMMLHMLNGCHPWTQFFRGPLCLKIASEPPPVREIPPSCAPLTAQAIQEGLRKEPIHRVSAAELGGKVNRALQQVGGLKSPWRGEYKEPRHPPPNQANYHQTLHAQPRELSPRAPGPRPAEETTGRAPKLQPPLPPEPPEPNKSPPLTLSKEESGMWEPLPLSSLEPAPARNPSSPERKATVPEQELQQLEIELFLNSLSQPFSLEEQEQILSCLSIDSLSLSDDSEKNPSKASQSSRDTLSSGVHSWSSQAEARSSSWNMVLARGRPTDTPSYFNGVKVQIQSLNGEHLHIREFHRVKVGDIATGISSQIPAAAFSLVTKDGQPVRYDMEVPDSGIDLQCTLAPDGSFAWSWRVKHGQLENRP
Take B2: the binding entry was “no binding”.
